No constants are given. Whether binding was seen depends on the method and setting. In cells and extracts the contact can be indirect. A yes stands for co-enrichment or nearness to the bait. Other partners may have been found.

The chains are these.
B1: DNA topoisomerase 2 (enzyme, UniProt P15348 1-1447)
chain: MENGNKALSIEQMYQKKSQLEHILLRPDSYIGSVEFTKELMWVYDNSQNRMVQKEISFVPGLYKIFDEILVNAADNKQRDKSMNTIKIDIDPERNMVSVWNNGQGIPVTMHKEQKMYVPTMIFGHLLTSSNYNDDEKKVTGGRNGYGAKLCNIFSTSFTVETATREYKKSFKQTWGNNMGKASDVQIKDFNGTDYTRITFSPDLAKFKMDRLDEDIVALMSRRAYDVAASSKGVSVFLNGNKLGVRNFKDYIDLHIKNTDDDSGPPIKIVHEVANERWEVACCPSDRGFQQVSFVNSIATYKGGRHVDHVVDNLIKQLLEVLKKKNKGGINIKPFQVRNHLWVFVNCLIENPTFDSQTKENMTLQQKGFGSKCTLSEKFINNMSKSGIVESVLAWAKFKAQNDIAKTGGRKSSKIKGIPKLEDANEAGGKNSIKCTLILTEGDSAKSLAVSGLGVIGRDLYGVFPLRGKLLNVREANFKQLSENAEINNLCKIIGLQYKKKYLTEDDLKTLRYGKVMIMTDQDQDGSHIKGLLINFIHTNWPELLRLPFLEEFITPIVKATKKNEELSFYSLPEFEEWKNDTANHHTYNIKYYKGLGTSTSKEAKEYFQDMDRHRILFKYDGSVDDESIVMAFSKKHIESRKVWLTNHMDEVKRRKELGLPERYLYTKGTKSITYADFINLELVLFSNADNERSIPSLVDGLKPGQRKVMFTCFKRNDKREVKVAQLSGSVAEMSAYHHGEVSLQMTIVNLAQNFVGANNINLLEPRGQFGTRLSGGKDCASARYIFTIMSPLTRLIYHPLDDPLLDYQVDDGQKIEPLWYLPIIPMVLVNGAEGIGTGWSTKISNYNPREIMKNLRKMINGQEPSVMHPWYKNFLGRMEYVSDGRYIQTGNIQILSGNRLEISELPVGVWTQNYKENVLEPLSNGTEKVKGIISEYREYHTDTTVRFVISFAPGEFERIHAEEGGFYRVFKLTTTLSTNQMHAFDQNNCLRRFPTAIDILKEYYKLRREYYARRRDFLVGQLTAQADRLSDQARFILEKCEKKLVVENKQRKAMCDELLKRGYRPDPVKEWQRRIKMEDAEQADEEDEEEEEAAPSVSSKAKKEKEVDPEKAFKKLTDVKKFDYLLGMSMWMLTEEKKNELLKQRDTKLSELESLRKKTPEMLWLDDLDALESKLNEVEEKERAEEQGINLKTAKALKGQKSASAKGRKVKSMGGGAGAGDVFPDPDGEPVEFKITEEIIKKMAAAAKVAQAAKEPKKPKEPKEPKVKKEPKGKQIKAEPDASGDEVDEFDAMVEGGSKTSPKAKKAVVKKEPGEKKPRQKKENGGGLKQSKIDFSKAKAKKSDDDVEEVTPRAERPGRRQASKKIDYSSLFSDEEEDGGNVGSDDDGNASDDDSPKRPAKRGREDESSGGAKKKAPPKKRRAVIESDDDDIEIDEDDDDDSDFNC
B2: subunit 1 of TFIIF (protein, UniProt Q05913 1-577)
chain: MSSASKSTPSAASGSSTSAAAAAAASVASGSASSSANVQEFKIRVPKMPKKHHVMRFNATLNVDFAQWRNVKLERENNMKEFRGMEEDQPKFGAGSEYNRDQREEARRKKFGIIARKYRPEAQPWILKVGGKTGKKFKGIREGGVGENAAFYVFTHAPDGAIEAYPLTEWYNFQPIQRYKSLSAEEAEQEFGRRKKVMNYFSLMLRKRLRGDEEEEQDPEEAKLIKAATKKSKELKITDMDEWIDSEDESDSEDEEDKKKKEQEDSDDGKAKGKGKKGADKKKKKRDVDDEAFEESDDGDEEGREMDYDTSSSEDEPDPEAKVDKDMKGVAEEDALRKLLTSDEEEDDEKKSDESDKEDADGEKKKKDKGKDEVSKDKKKKKPTKDDKKGKSNGSGDSSTDFSSDSTDSEDDLSNGPPKKKVVVKDKDKEKEKEKESAASSKVIASSSNANKSRSATPTLSTDASKRKMNSLPSDLTASDTSNSPTSTPAKRPKNEISTSLPTSFSGGKVEDYGITEEAVRRYLKRKPLTATELLTKFKNKKTPVSSDRLVETMTKILKKINPVKHTIQGKMYLWIK
B3: snRNP A subunit of the U1 snRNP spliceosome (protein, UniProt P43332 1-216)
chain: MEMLPNQTIYINNLNEKIKKEELKKSLYAIFSQFGQILDIVALKTLKMRGQAFVIFKEIGSASNALRTMQGFPFYDKPMQIAYSKSDSDIVAKIKGTFKERPKKVKPPKPAPGTDEKKDKKKKPSSAENSNPNAQTEQPPNQILFLTNLPEETNEMMLSMLFNQFPGFKEVRLVPNRHDIAFVEFTTELQSNAAKEALQGFKITPTHAMKITFAKK

The target in this assay is double FLAG-tagged Rpb1, largest subunit of RNA polymerase II (Drosophila melanogaster (endogenous in embryos)) (UniProt P04052). Nature of the assay: affinity purification with mass spectrometry; FLAG-affinity eluate of Rpb1 from embryo nuclear lysate, trypsin digest, LC-MS/MS (Orbitrap Eclipse), Sequest HT search against the Drosophila proteome.
Regarding B1, the binding result is on record as “binds”.

For the molecule B2, the binding entry is given as “binds”.

Turning to B3, the binding entry was “binds”.

The record behind these values is paper PMC13554098.
